The test concerns the target T1, sorcin, endogenous in 3T3-L1 fibroblasts (mouse (endogenous in 3T3-L1)) (UniProt Q6P069).
T1 sequence: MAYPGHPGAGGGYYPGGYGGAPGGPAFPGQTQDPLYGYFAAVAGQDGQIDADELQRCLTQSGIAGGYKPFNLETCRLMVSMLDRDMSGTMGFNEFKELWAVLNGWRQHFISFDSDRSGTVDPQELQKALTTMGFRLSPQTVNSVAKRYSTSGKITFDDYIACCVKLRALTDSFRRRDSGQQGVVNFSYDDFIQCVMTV
Put plainly: co-IP; 3T3-L1 fibroblast lysate in buffer A (20 mM HEPES pH 7.4, 0.25 M sucrose, 1 mM EDTA) with 1% Nonidet P-40; 3 h at 4°C with rabbit α-sorcin or rabbit α-PLK1, protein G-Sepharose; western blot.

Protein sequences, listed by entry. Tags and fused reporters are not part of them.
UniProt Q07832: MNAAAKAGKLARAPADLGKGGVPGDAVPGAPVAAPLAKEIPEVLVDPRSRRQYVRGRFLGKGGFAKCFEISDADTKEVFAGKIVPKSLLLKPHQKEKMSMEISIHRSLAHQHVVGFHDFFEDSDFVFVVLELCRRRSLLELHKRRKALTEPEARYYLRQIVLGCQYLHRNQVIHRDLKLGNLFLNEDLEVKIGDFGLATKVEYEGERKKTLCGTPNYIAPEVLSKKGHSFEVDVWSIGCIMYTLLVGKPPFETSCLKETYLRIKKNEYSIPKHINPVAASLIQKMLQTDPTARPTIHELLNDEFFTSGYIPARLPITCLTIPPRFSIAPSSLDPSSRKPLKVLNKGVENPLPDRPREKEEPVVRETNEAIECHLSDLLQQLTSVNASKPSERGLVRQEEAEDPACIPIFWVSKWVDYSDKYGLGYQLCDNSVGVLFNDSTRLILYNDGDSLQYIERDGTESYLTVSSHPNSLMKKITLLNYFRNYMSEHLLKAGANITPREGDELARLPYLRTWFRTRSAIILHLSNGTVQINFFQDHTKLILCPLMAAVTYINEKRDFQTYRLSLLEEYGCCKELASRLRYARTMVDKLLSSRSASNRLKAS

No constants are given. Whether binding was seen depends on the method and setting. In cells and extracts the contact can be indirect. Some entries that bind do so weakly or less than the wild type.

On to “Polo-like kinase 1 (PLK1), endogenous in 3T3-L1 fibroblasts (from UniProt Q07832 1-603) (enzyme)”, for which the binding entry is given as “binds”.

These data come from paper PMC3888430.
